Results are given in words; binding and its absence hold for the method and conditions named. Some results given as binding are weak or reduced against the parent protein; the word gives no strength.

Sequences of proteins named here, by UniProt entry; tags and fusion partners are left off. Residues count along the entry.
UniProt P08069, residues 31-1367: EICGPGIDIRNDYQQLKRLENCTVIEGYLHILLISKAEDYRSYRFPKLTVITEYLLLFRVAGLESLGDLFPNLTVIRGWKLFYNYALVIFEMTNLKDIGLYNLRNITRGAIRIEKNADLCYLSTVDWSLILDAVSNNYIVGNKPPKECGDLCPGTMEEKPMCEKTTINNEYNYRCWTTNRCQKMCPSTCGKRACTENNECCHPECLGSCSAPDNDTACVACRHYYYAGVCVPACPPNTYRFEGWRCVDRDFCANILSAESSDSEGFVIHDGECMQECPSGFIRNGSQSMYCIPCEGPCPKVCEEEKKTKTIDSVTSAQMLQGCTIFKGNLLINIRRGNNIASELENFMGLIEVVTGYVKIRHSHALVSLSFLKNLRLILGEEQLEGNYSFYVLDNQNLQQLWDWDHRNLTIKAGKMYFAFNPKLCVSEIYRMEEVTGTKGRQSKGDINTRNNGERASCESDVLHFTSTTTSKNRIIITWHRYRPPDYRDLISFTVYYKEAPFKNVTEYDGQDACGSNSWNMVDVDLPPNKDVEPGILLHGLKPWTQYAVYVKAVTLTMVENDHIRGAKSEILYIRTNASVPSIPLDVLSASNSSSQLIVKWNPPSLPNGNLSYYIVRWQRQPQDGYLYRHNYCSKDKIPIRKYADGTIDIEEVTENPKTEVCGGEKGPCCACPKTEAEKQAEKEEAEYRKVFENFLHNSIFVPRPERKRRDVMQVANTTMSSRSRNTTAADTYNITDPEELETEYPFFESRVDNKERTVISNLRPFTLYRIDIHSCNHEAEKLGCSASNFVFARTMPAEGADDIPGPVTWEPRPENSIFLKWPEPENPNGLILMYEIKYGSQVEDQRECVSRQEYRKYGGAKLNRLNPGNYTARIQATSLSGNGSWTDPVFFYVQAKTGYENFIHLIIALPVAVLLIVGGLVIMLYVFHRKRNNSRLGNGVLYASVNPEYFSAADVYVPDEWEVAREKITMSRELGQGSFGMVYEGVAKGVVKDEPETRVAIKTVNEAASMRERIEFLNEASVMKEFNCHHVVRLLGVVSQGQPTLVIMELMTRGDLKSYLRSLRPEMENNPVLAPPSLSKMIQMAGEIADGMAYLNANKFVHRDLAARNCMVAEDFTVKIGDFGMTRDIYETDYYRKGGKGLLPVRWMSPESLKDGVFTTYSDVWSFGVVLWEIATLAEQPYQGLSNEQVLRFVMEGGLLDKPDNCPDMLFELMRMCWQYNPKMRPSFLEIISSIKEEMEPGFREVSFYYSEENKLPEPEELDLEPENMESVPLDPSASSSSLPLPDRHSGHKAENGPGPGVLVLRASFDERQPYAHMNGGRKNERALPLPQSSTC

Binding data for two substances are collected here from patent publication US20110195896A1, “ISOFORM-SPECIFIC INSULIN ANALOGUES” (CASE WESTERN RESERVE UNIVERSITY, priority 2008, published 2011).

Test [1] has as its target Type I IGF receptor (UniProt P08069). Nature of the test: competitive displacement of 125I-IGF-1 from IGFR. (In a radioligand displacement assay an active substance lowers the binding of a labelled ligand.)
Test [2] has the same target. Nature of the test: competitive displacement assay on IGFR.

With “[His^A8, Asp^B28, Pro^B29]-SCI (57-mer single-chain insulin analogue, linker GGGPRR) (from UniProt P30407 25-110) (ligand)”, in the test with Type I IGF receptor [1], the binding result is listed as “binds”.
Turning to “His^A8, Asp^B10, Asp^B28, Pro^B29 SCI (from UniProt P30407 25-110) (ligand)”, in the test with Type I IGF receptor [2], the binding result is listed as “binds”.
